{"source": "PubChem BioAssay AID1053208, Peter MacCallum Cancer Centre | 2014", "assay": "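Genes whose silencing cuts survival of bone tumour cells only with doxorubicin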 (primary screen)", "cells": "mouse osteosarcoma cells, early-passage culture from an engineered mouse model of fibroblastic bone tumour", "reagents": "siRNA pool against mouse genes, 40 nM", "timing": "about 120 h (48 h before drug, then 72 h with drug)", "conditions": "doxorubicin 100 nM for 72 h, roughly 30-40% inhibitory dose", "read-out": "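Viability read as ATP luminescence after 72 h of 100 nM doxorubicin or none, duplicate wells averaged, scaled to non-targeting siRNA, then expressed as robust z-scores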", "reading the numbers": "viability z-score with doxorubicin: higher = more viable cells under doxorubicin; viability z-score without drug: higher = more viable cells with knock-down alone", "hit rule": "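a pool counts as active when its viability z-score with doxorubicin is -2 or below and its z-score without drug lies between -2 and 2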", "note": "This is one part, drawn at random, of about 17,000 reagents tested. In the full data, 788 (4.7%) were called active. 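Calls rest on z-score classes alone; an extra cut-off of viability at most 70% of control was not applied to them.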 Unmarked entries are inactive. Not all columns of the deposit are shown. No sequences are given here."}
{"gene": "Rd3", "combined z-score class": "no change with or without drug", "viability z-score with doxorubicin": 0.67, "viability z-score without drug": 0.17}
{"gene": "Grin2a", "combined z-score class": "no change with or without drug", "viability z-score with doxorubicin": 0.22, "viability z-score without drug": -0.34}
{"gene": "Or6c38", "combined z-score class": "no change with or without drug", "viability z-score with doxorubicin": 1.35, "viability z-score without drug": 1.85}
{"gene": "Rgr", "combined z-score class": "no change with or without drug", "viability z-score with doxorubicin": -0.11, "viability z-score without drug": -0.34}
{"gene": "Mrpl36", "combined z-score class": "no change with or without drug", "viability z-score with doxorubicin": 1.24, "viability z-score without drug": 1.18}
{"gene": "Sptssa", "combined z-score class": "low cell count with doxorubicin only (active)", "viability z-score with doxorubicin": -2.59, "viability z-score without drug": 0.51}
{"gene": "Senp3", "combined z-score class": "no change with or without drug", "viability z-score with doxorubicin": -0.79, "viability z-score without drug": -0.84}
{"gene": "Mrpl11", "combined z-score class": "no change with or without drug", "viability z-score with doxorubicin": 1.8, "viability z-score without drug": -0.17}
{"gene": "Arhgap17", "combined z-score class": "no change with or without drug", "viability z-score with doxorubicin": -1.57, "viability z-score without drug": -0.17}
{"gene": "Inpp4b", "combined z-score class": "no change with or without drug", "viability z-score with doxorubicin": 0.22, "viability z-score without drug": 0.34}
{"gene": "Negr1", "combined z-score class": "low cell count without drug only", "viability z-score with doxorubicin": -0.79, "viability z-score without drug": -2.19}
{"gene": "Psmc6", "combined z-score class": "low cell count with and without drug", "viability z-score with doxorubicin": -7.87, "viability z-score without drug": -6.91}
{"gene": "Insl5", "combined z-score class": "high cell count without drug only", "viability z-score with doxorubicin": 1.35, "viability z-score without drug": 3.04}
{"gene": "Cenpk", "combined z-score class": "no change with or without drug", "viability z-score with doxorubicin": -1.91, "viability z-score without drug": -0.51}
{"gene": "Trafd1", "combined z-score class": "no change with or without drug", "viability z-score with doxorubicin": -0.34, "viability z-score without drug": 1.18}
{"gene": "Otx1", "combined z-score class": "no change with or without drug", "viability z-score with doxorubicin": 1.8, "viability z-score without drug": 0.84}
{"gene": "Clp1", "combined z-score class": "no change with or without drug", "viability z-score with doxorubicin": -0.79, "viability z-score without drug": -1.18}
{"gene": "A130050O07Rik", "combined z-score class": "no change with or without drug", "viability z-score with doxorubicin": -0.11, "viability z-score without drug": 0}
{"gene": "Vav2", "combined z-score class": "no change with or without drug", "viability z-score with doxorubicin": 0.22, "viability z-score without drug": 0.17}
{"gene": "St6galnac1", "combined z-score class": "no change with or without drug", "viability z-score with doxorubicin": -0.67, "viability z-score without drug": -1.01}
{"gene": "Alox12e", "combined z-score class": "no change with or without drug", "viability z-score with doxorubicin": 0.11, "viability z-score without drug": -0.17}
{"gene": "Ctdsp2", "combined z-score class": "no change with or without drug", "viability z-score with doxorubicin": 0.56, "viability z-score without drug": 0.84}
{"gene": "Or5p50", "combined z-score class": "no change with or without drug", "viability z-score with doxorubicin": -0.67, "viability z-score without drug": -1.52}
{"gene": "Mark3", "combined z-score class": "no change with or without drug", "viability z-score with doxorubicin": 1.12, "viability z-score without drug": -0.34}
{"gene": "Cnnm4", "combined z-score class": "no change with or without drug", "viability z-score with doxorubicin": 0.22, "viability z-score without drug": -0.17}
{"gene": "Tbx3", "combined z-score class": "no change with or without drug", "viability z-score with doxorubicin": 0, "viability z-score without drug": -0.17}
{"gene": "Dpysl3", "combined z-score class": "no change with or without drug", "viability z-score with doxorubicin": -0.22, "viability z-score without drug": 0.51}
{"gene": "Zfp612", "combined z-score class": "no change with or without drug", "viability z-score with doxorubicin": 0.22, "viability z-score without drug": -0.17}
